No constants are given. Whether binding was seen depends on the method and setting. In cells and extracts the contact can be indirect. Binding calls can cover weak binding; strength is not graded here.
Assays:
[1] = target: HA-tagged Cdh1 (human) (UniProt Q9UM11); experiment: co-IP; deletion constructs of BRD7, Cdh1 or Cdc20 to map the binding domains; tags and cells not given
[2] = target: HA-tagged Cdc20 (human) (UniProt Q12834); experiment: as above

The chains behind the UniProt entries cited, without tags or fusion partners. Where a name states a change or a piece, a line headed by the entry shows the natural chain unless it says otherwise.
UniProt Q9UM11: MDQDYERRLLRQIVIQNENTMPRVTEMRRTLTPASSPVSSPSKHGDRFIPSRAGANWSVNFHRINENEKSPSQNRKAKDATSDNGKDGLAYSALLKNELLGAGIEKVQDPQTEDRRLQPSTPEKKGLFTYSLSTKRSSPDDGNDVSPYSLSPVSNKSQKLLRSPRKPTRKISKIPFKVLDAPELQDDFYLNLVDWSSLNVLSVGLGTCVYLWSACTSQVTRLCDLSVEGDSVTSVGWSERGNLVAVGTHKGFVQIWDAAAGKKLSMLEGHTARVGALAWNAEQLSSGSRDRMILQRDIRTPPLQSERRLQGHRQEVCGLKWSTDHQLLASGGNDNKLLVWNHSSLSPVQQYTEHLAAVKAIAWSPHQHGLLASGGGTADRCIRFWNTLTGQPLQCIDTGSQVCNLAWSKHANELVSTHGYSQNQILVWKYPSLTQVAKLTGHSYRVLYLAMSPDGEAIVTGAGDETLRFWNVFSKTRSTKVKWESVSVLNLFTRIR
UniProt Q12834: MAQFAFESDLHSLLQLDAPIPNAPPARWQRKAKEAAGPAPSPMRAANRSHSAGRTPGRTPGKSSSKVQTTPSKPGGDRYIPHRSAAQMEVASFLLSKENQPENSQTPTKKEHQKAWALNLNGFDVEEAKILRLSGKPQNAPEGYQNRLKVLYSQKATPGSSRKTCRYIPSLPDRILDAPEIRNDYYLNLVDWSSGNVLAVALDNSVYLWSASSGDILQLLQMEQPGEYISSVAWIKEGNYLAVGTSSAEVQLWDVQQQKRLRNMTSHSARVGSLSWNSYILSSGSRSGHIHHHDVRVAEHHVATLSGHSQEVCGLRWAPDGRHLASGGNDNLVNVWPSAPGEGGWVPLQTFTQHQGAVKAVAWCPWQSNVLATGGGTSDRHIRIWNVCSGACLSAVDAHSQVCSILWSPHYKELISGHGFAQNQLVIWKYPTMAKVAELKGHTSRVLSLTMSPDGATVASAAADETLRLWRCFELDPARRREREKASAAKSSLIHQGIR
UniProt Q9NPI1: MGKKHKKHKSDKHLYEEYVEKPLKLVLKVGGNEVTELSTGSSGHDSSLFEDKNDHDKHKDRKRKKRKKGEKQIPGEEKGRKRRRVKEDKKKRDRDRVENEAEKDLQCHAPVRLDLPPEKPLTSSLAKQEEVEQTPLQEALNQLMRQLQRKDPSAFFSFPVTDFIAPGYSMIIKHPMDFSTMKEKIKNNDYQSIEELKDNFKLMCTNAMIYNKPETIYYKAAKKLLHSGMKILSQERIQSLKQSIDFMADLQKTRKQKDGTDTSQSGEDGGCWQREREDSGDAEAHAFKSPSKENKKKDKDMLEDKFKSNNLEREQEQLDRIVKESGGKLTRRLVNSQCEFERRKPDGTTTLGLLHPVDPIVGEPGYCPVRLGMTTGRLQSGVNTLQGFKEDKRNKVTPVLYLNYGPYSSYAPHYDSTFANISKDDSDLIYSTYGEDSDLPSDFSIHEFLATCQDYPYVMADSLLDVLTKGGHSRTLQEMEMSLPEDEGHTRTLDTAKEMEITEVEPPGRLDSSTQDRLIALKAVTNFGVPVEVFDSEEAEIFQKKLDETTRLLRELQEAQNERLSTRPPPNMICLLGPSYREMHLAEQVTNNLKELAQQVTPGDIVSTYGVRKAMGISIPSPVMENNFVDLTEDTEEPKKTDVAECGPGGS

binding [1]: binds
binding [2]: binds
Substance: BRD7 mutant lacking the bromodomain (from UniProt Q9NPI1)
